Experimental data reported in patent US11759477B2, “Compositions of nitrates and methods of use thereof” (Heartbeet Ltd., priority 2007, dated 2023).

Conditions: 0.1 mmol/kg/day oral, 3 days

SMILES: O=[N+]([O-])[O-].[Na+] [sodium nitrate]
- Hematocrit value after the VO2peak-test (after VO2peak-test): 46±4%
- [Hb] immediately after the VO2peak-test (after VO2peak-test): 163±13 g×1-1
- Hematocrit value at rest (at rest): 42±4%
- [Hb] at rest (at rest): 152±11 g×1-1
